PubChem BioAssay AID493246 – Drosophila RNAi Screening Center – 2011
The screen tested about 21,000 reagents; below is a random part of those that have a named target and a result. Over the whole deposit, 429 (2%) got an active call. 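Values are raw and not normalised between plates; calls rest on per-plate z-scores that were not deposited.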 A plus sign joins genes that one reagent is predicted to hit. No sequences are given here. The record does not give: the amount of reagent, the time to read-out.

Assay: 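Genome-wide search for dsRNAs that reduce cell number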 (primary screen)
Cells: Drosophila Kc and S2R+ cells
Knock-down reagent: long dsRNA against Drosophila genes
Measurement: 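Cell number per well after knock-down, printed as raw plate values; calls were based on per-plate z-scores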
Direction: Kc cell number and S2R+ cell number: higher = more cells remaining
Call rule: 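Counted as a hit if cell number falls by a z-score of at least 3 within its plate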

no.	target gene	amplicon	Kc cell number, rep 1	Kc cell number, rep 2	S2R+ cell number, rep 1	S2R+ cell number, rep 2	activity call
1	CG18004	DRSC06705	1.68e6	1.65e6	1.43e6	1.53e6	inactive
2	CG13285	DRSC09960	1.46e6	1.54e6	1.14e6	1.22e6	inactive
3	eIF3l (eukaryotic translation initiation factor 3 subunit l)	DRSC10530	1.41e6	1.51e6	1.30e6	1.33e6	inactive
4	CG7888	DRSC10926	1.37e6	1.40e6	1.19e6	1.12e6	inactive
5	ND-ACP	DRSC08724	1.31e6	1.21e6	8.88e5	1.06e6	inactive
6	mGluR (metabotropic Glutamate Receptor)	DRSC17215	1.66e6	1.75e6	1.05e6	1.15e6	inactive
7	ppk19 (pickpocket 19)	DRSC15321	1.56e6	1.58e6	1.01e6	1.11e6	inactive
8	Pxt (Peroxinectin-like)	DRSC17040	1.50e6	1.50e6	1.06e6	1.18e6	inactive
9	CG13054	DRSC09935	1.35e6	1.43e6	1.31e6	1.41e6	inactive
10	Gapdh2 (Glyceraldehyde 3 phosphate dehydrogenase 2)	DRSC20246	1.37e6	1.41e6	1.07e6	1.15e6	inactive
11	CG11141	DRSC06048	1.26e6	1.55e6	8.92e5	9.65e5	inactive
12	CG15876	DRSC08484	1.59e6	1.49e6	1.25e6	1.27e6	inactive
13	CG10948	DRSC09806	1.59e6	1.73e6	1.34e6	1.56e6	inactive
14	pygo (pygopus)	DRSC14322	3.53e5		5.23e5		inactive
15	Akh (Adipokinetic hormone)	DRSC08138	1.61e6	1.53e6	1.07e6	1.31e6	inactive
16	CG13926	DRSC08395	1.27e6	1.31e6	1.06e6	1.19e6	inactive
17	Hmgcl (3-Hydroxymethyl-3-methylglutaryl-CoA lyase)	DRSC02051	1.63e6	1.53e6	1.12e6	1.25e6	inactive
18	bgcn (benign gonial cell neoplasm)	DRSC04062	1.61e6	1.69e6	1.32e6	1.40e6	inactive
19	bgcn (benign gonial cell neoplasm)	DRSC04063	1.62e6	1.68e6	1.27e6	1.49e6	inactive
20	NKCC (sodium potassium chloride cotransporter)	DRSC12140	1.77e6	1.85e6	1.22e6	1.34e6	inactive
21	NKCC (sodium potassium chloride cotransporter)	DRSC12311	1.38e6	1.50e6	1.32e6	1.40e6	inactive
22	CG15213	DRSC10213	1.22e6	1.30e6	1.02e6	1.08e6	inactive
23	PGRP-LD + Cralbp + Pmi	DRSC09743	1.30e6	1.22e6	1.22e6	1.25e6	inactive
24	CG31544 (retired record)	DRSC12466	1.59e6	1.55e6	1.09e6	1.35e6	inactive
25	betaNACtes3 (Nascent-associated complex beta-subunit-like, testis 3)	DRSC20183	1.50e6	1.50e6	1.03e6	1.09e6	inactive
26	Or19a (Odorant receptor 19a)	DRSC20684	1.51e6	1.51e6	1.04e6	1.16e6	inactive
27	plx (pollux)	DRSC12260	1.44e6	1.60e6	1.23e6	1.34e6	inactive
28	plx (pollux)	DRSC12385	1.29e6	1.28e6	1.03e6	1.15e6	inactive
29	ana2 (anastral spindle 2)	DRSC05952	1.35e6	1.42e6	1.21e6	1.27e6	inactive
30	CG7950 + Rpp14a	DRSC16353	4.74e5		7.10e5		inactive
31	Fis1 (Fission, mitochondrial 1)	DRSC07772	1.44e6	1.41e6	1.07e6	1.29e6	inactive
32	CG43693	DRSC09086	1.59e6	1.78e6	1.24e6	1.35e6	inactive
33	CG43693	DRSC10625	1.33e6	1.37e6	1.15e6	1.12e6	inactive
34	CG4073	DRSC15542	1.38e6	1.45e6	1.31e6	1.41e6	inactive
35	Cyp312a1 (Cytochrome P450 312a1)	DRSC11128	1.31e6	1.34e6	1.27e6	1.35e6	inactive
36	CG10405	DRSC14238	1.52e6	1.56e6	1.06e6	1.14e6	inactive
37	crb (crumbs)	DRSC16927	1.53e6	1.60e6	1.14e6	1.15e6	inactive
38	CG15480	DRSC02490	1.69e6	1.66e6	1.37e6	1.51e6	inactive
39	Klp3A (Kinesin-like protein at 3A)	DRSC18676	5.80e5		9.16e5		inactive
40	CG17380	DRSC15230	1.54e6	1.72e6	1.13e6	1.18e6	inactive
41	HP1b (Heterochromatin Protein 1b)	DRSC18418	1.59e6	1.63e6	1.02e6	1.16e6	inactive
42	Rab9Fb (Rab at 9Fb)	DRSC19854	1.63e6	1.54e6	1.10e6	1.17e6	inactive
43	Dhps (Deoxyhypusine synthase)	DRSC10948	1.72e6	1.56e6	1.16e6	1.15e6	inactive
44	CG32829	DRSC00961	1.60e6	1.68e6	1.09e6	1.24e6	inactive
45	TfIIA-L (Transcription factor IIA L)	DRSC16882	4.65e5		7.81e5		inactive
46	NANS (N-acetylneuraminic acid synthase)	DRSC15743	1.40e6	1.50e6	1.23e6	1.34e6	inactive
47	eEF5 (eukaryotic translation elongation factor 5)	DRSC04681	1.52e6	1.58e6	1.25e6	1.27e6	inactive
48	chb (chromosome bows)	DRSC11469	1.40e6	1.51e6	1.07e6	1.24e6	inactive
49	TyrRS (Tyrosyl-tRNA synthetase)	DRSC10430	1.61e6	1.71e6	1.55e6	1.58e6	inactive
50	Ir7d (Ionotropic receptor 7d)	DRSC18010	1.62e6	1.69e6	1.09e6	1.20e6	inactive
51	CG10283	DRSC02034	1.34e6	1.34e6	1.28e6	1.07e6	inactive
52	CG6656	DRSC16085	1.55e6	1.53e6	1.18e6	1.24e6	inactive
53	Ddx56 (DEAD-box helicase 56)	DRSC20567	1.49e6	1.45e6	9.24e5	1.04e6	inactive
54	CG3457	DRSC18509	5.53e5		8.08e5		inactive
55	spirit (Serine Protease Immune Response Integrator)	DRSC18202	5.47e5		8.84e5		inactive
56	prim (primacord)	DRSC06575	1.63e6	1.62e6	1.27e6	1.46e6	inactive
57	dmrt93B (doublesex-Mab related 93B)	DRSC15865	1.21e6	1.24e6	1.14e6	1.23e6	inactive
58	Gle1 (Gle1 RNA export mediator)	DRSC06485	1.31e6	1.38e6	1.00e6	1.16e6	inactive
59	CG32572	DRSC19525	1.44e6	1.44e6	1.09e6	1.14e6	inactive
60	CG32572	DRSC19526	1.42e6	1.39e6	1.08e6	1.13e6	inactive

Reformatted: 9 of the entries above.
target gene	amplicon	Kc cell number, rep 1	Kc cell number, rep 2	S2R+ cell number, rep 1	S2R+ cell number, rep 2	activity call
Cyp312a1 (Cytochrome P450 312a1)	DRSC11128	1.31e6	1.34e6	1.27e6	1.35e6	inactive
CG10405	DRSC14238	1.52e6	1.56e6	1.06e6	1.14e6	inactive
crb (crumbs)	DRSC16927	1.53e6	1.60e6	1.14e6	1.15e6	inactive
CG15480	DRSC02490	1.69e6	1.66e6	1.37e6	1.51e6	inactive
Klp3A (Kinesin-like protein at 3A)	DRSC18676	5.80e5		9.16e5		inactive
CG17380	DRSC15230	1.54e6	1.72e6	1.13e6	1.18e6	inactive
HP1b (Heterochromatin Protein 1b)	DRSC18418	1.59e6	1.63e6	1.02e6	1.16e6	inactive
Rab9Fb (Rab at 9Fb)	DRSC19854	1.63e6	1.54e6	1.10e6	1.17e6	inactive
Dhps (Deoxyhypusine synthase)	DRSC10948	1.72e6	1.56e6	1.16e6	1.15e6	inactive
